Reference: paper PMC11430254, “Insights into Transient Dimerisation of Carnitine/Acylcarnitine Carrier (SLC25A20) from Sarkosyl/PAGE, Cross-Linking Reagents, and Comparative Modelling Analysis” (Biomolecules, 2024)
Results are given in words; binding and its absence hold for the method and conditions named. Values belong to the binder of their own block, whether it stands above or below them.

What was measured:
[1] = biological target: native carnitine/acylcarnitine carrier purified from isolated rat liver mitochondria (rat (endogenous in rat liver mitochondria)) (UniProt P97521); assay: condition: only samples pre-treated with 0.1% w/v SDS; native gel or EMSA; Sarkosyl/PAGE (0.05% w/v Sarkosyl, 4 °C) of purified CAC in Triton X-100 or from proteoliposomes, samples pre-treated with 0.1% w/v SDS; both purified
[2] = biological target: recombinant carnitine/acylcarnitine carrier wild type (UniProt P97521); assay: condition: only mixed with C-lessV at the ratio 25/75 WT/C-lessV; cross-linking; recombinant CAC WT mixed with C-lessV at the ratio 25/75 WT/C-lessV, reconstituted in liposomes, incubated with Sulfo-SMPB; SDS-PAGE and immunoblot; both purified

binding [1]: no binding
B1: native carnitine/acylcarnitine carrier purified from isolated rat liver mitochondria (natural protein, UniProt P97521 1-301, looked up)
chain: MAEEPKPISPLKNLLAGGFGGVCLVFVGHPLDTVKVRLQTQPPSLPGQPPMYSGTIDCFRKTLFREGITGLYRGMAAPIIGVTPMFAVCFFGFGLGKRLQQKSPEDELTYPQLFTAGMLSGVFTTGIMTPGERIKCLLQIQASSGKNKYSGTLDCAKKLYQEFGIRGFYKGTALTLMRDVPASGMYFMTYEWLKNLFTPQGKSVHDLSVPRVLVAGGFRGIFNWVVAIPPDVLKSRFQTAPPGKYPNGFRDVLRELIREEGVTSLYKGFNAVMIRAFPANAACFLGFEIPMKILNWIAPNL
notes: mitochondrial carnitine/acylcarnitine carrier (CAC, SLC25A20), rat, native protein from liver mitochondria; single band of apparent molecular weight 32,500 Da on SDS gel; Integral membrane protein; also called CAC; SLC25A20; source: purified from rat liver mitoplasts (3% Triton X-100 extract, hydroxyapatite, celite with cardiolipin); used in Triton X-100 or reconstituted in liposomes

binding [2]: no binding
B2: recombinant carnitine/acylcarnitine carrier wild type (natural protein, UniProt P97521 1-301, looked up)
chain: B1 chain
notes: also called CAC WT; WT; source: overexpressed from cDNA cloned in pMW7, purified, reconstituted in liposomes
